Data published in paper PMC7819943, “Rice protein-binding microarrays: a tool to detect cis-acting elements near promoter regions in rice”.
The other results are listed elsewhere or left out.

The chains behind the UniProt entries cited, without tags or fusion partners.
UniProt Q0JBA9, entry or part of it: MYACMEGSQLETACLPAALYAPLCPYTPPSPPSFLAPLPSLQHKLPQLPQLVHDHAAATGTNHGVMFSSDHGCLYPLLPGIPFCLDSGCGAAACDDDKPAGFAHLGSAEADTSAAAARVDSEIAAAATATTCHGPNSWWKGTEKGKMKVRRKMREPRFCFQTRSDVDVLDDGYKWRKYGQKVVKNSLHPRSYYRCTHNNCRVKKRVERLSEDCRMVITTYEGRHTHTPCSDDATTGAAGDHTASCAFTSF

biological target: OsWRKY34 (Oryza sativa, UniProt Q0JBA9 1-250); assay: protein-binding microarray (RPBM); PBS, 2% BSA, 51.3 ng/ul salmon testes DNA, 50 uM zinc acetate, 200 nM TF, 25 C, 1 h; high values mean tight binding; details: protein: recombinant; tags: N-terminal polyhistidine and DsRed monomer fusion (pET32a); label: CyDye5-dUTP incorporated in the synthesized complementary strand; 3' TTTTT single-stranded linker to array surface; dsDNA, one strand shown
Method in brief: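 A custom Agilent array was converted to double-stranded form by primer extension with Cy5-dUTP and blocked with 2% BSA. Protein at 200 nM in PBS with 2% BSA, salmon testes DNA and 50 µM zinc acetate was applied for 1 h at 25 °C, followed by washing. The proteins were polyhistidine–DsRed N-terminal fusions of transcription factors, expressed in E. coli BL21-CodonPlus and Ni–NTA-purified. The binding signal is per-feature fluorescence intensity (arbitrary units) from an Axon 4000B scanner.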

| Sequence | binding signal |
| --- | --- |
| ACTCTTATTATATATCTTGCTGCCTCTGTTTGATTTACATCGGAGTCACCTAGTGCAG | 9060 fluorescence intensity (a.u.) |
| ATGTGTGATATTAAAATTTAAGAGGGGAGTGGGGTGGTAACGGAGTCACCTAGTGCAG | 8350 fluorescence intensity (a.u.) |
| GGTAATAGGTCAGGGTTGTGCAGGTGCATGCTCTTGTTGACGGAGTCACCTAGTGCAG | 8192 fluorescence intensity (a.u.) |
| ACATCTTACAATTAACACTACTGTCTATGTCTCAATTCATCGGAGTCACCTAGTGCAG | 9890 fluorescence intensity (a.u.) |
| TATACGACGCTAACGCTGTTGACTTTTTACATACTACTCACGGAGTCACCTAGTGCAG | 14700 fluorescence intensity (a.u.) |
| CACCTCTCTCGTTTTCCGCGCACACGCTTTTCAAACTATTCGGAGTCACCTAGTGCAG | 12100 fluorescence intensity (a.u.) |
| CACAAGTACAAACAACTGCTAGCGTGGATATGTCTCACTACGGAGTCACCTAGTGCAG | 8090 fluorescence intensity (a.u.) |
| TCTCCCCTTTCTGCTTCTGCTGCTTCTCCCTTTCCCTCTCCGGAGTCACCTAGTGCAG | 8200 fluorescence intensity (a.u.) |
| TTGTTTCTTATTTATGTTTGGTGTCTTTTTATATTTATTTCGGAGTCACCTAGTGCAG | 9720 fluorescence intensity (a.u.) |
| GTTGTCTAGCTGGTTGGTTGGTGTGTCTTCTAAGCCGCGTCGGAGTCACCTAGTGCAG | 10900 fluorescence intensity (a.u.) |
| TGCACACATGCACACACGCGCGCGCTGCTGCTGCTGCTGACGGAGTCACCTAGTGCAG | 8160 fluorescence intensity (a.u.) |
| ACCACCACACGCGCGCGCTCGCACAGACACACACACAGCACGGAGTCACCTAGTGCAG | 8250 fluorescence intensity (a.u.) |
| GTCGCGTGTGCTTCTTTCTCGCCTTCTTCAGTCCGCGGCGCGGAGTCACCTAGTGCAG | 9820 fluorescence intensity (a.u.) |
| CCGATAGTATGCCAACTGATGCCATGCCACTGCTGTTGACCGGAGTCACCTAGTGCAG | 11100 fluorescence intensity (a.u.) |
| ACTAATTCACTATTTCGGTCAAACTCCTACCGCTAGATATCGGAGTCACCTAGTGCAG | 8640 fluorescence intensity (a.u.) |
| CGCCGCTGCCCGCATCATCACCACCTCACCTCACCTCAGCCGGAGTCACCTAGTGCAG | 8160 fluorescence intensity (a.u.) |
| TGTATTTTTTTGCGAAAGCCCTCTGGTTCACGCGTAATTCCGGAGTCACCTAGTGCAG | 8840 fluorescence intensity (a.u.) |
| TTTTCTTTCTGTCAGCCCATACTTTTCTGAATATTTACTCCGGAGTCACCTAGTGCAG | 8590 fluorescence intensity (a.u.) |
| TTTTTTTTGTTCGGCAGAGATGCACACGCAATAATTGTCCCGGAGTCACCTAGTGCAG | 8640 fluorescence intensity (a.u.) |
| CTACTTCCAGTTCCATTTGTATTCATGTCACCAATATCGTCGGAGTCACCTAGTGCAG | 8030 fluorescence intensity (a.u.) |
| ATGCTCATCATGACCGGCATGCTCGACTCTGCCATCCCGACGGAGTCACCTAGTGCAG | 8950 fluorescence intensity (a.u.) |

In another format: results already given
Sequence,binding signal
ATGTGTGATATTAAAATTTAAGAGGGGAGTGGGGTGGTAACGGAGTCACCTAGTGCAG,8350 fluorescence intensity (a.u.)
TGCACACATGCACACACGCGCGCGCTGCTGCTGCTGCTGACGGAGTCACCTAGTGCAG,8160 fluorescence intensity (a.u.)
TTTTCTTTCTGTCAGCCCATACTTTTCTGAATATTTACTCCGGAGTCACCTAGTGCAG,8590 fluorescence intensity (a.u.)

Remaining list, next part.

| Sequence | binding signal |
| --- | --- |
| GTGTCCATGTCCATGTCGCGGCCATTTATAATCGTAAGCACGGAGTCACCTAGTGCAG | 9480 fluorescence intensity (a.u.) |
| GAACTGCTCCCTCCATCCATAAATATTTGACGCCGTTGACCGGAGTCACCTAGTGCAG | 11900 fluorescence intensity (a.u.) |
| TGTATTTCGGATGGATACTGTGTGGTGTGTGTGTGGCTGACGGAGTCACCTAGTGCAG | 8240 fluorescence intensity (a.u.) |
| GGGTGTGAGATTGTGAGAGAATGGTCAAATTTACTTGGTACGGAGTCACCTAGTGCAG | 11600 fluorescence intensity (a.u.) |
| CTTACCTTGCTAACCGCACTGTCGACTCTTGCATGTTTGCCGGAGTCACCTAGTGCAG | 8660 fluorescence intensity (a.u.) |
| CTCTCCACTCGTACCCCGCATCCTTTCGTTATCTGTACGGCGGAGTCACCTAGTGCAG | 11300 fluorescence intensity (a.u.) |
| AACTACATATTCGGTAATTTATCCCTTACTTTTTTTCACACGGAGTCACCTAGTGCAG | 10900 fluorescence intensity (a.u.) |
| CCTACGATCTTCAGTTGTGGTGGTTTTTGGCCTTTTGCATCGGAGTCACCTAGTGCAG | 11100 fluorescence intensity (a.u.) |
| CTCCACATGCCAATTAATTCTCTTATTTTTTTCTCATACTCGGAGTCACCTAGTGCAG | 9490 fluorescence intensity (a.u.) |
| AGTAGTAGTTTTTCTTCCGGTTTCGATGTGTTAAACAAAACGGAGTCACCTAGTGCAG | 11300 fluorescence intensity (a.u.) |
| CATCATCACCTCCATCATCATGCTTTGCTTGCTTGCTCTACGGAGTCACCTAGTGCAG | 8840 fluorescence intensity (a.u.) |
| CCGCTTCTTCGTATGTGCCTGTAATATTTATTAATTTATTCGGAGTCACCTAGTGCAG | 12500 fluorescence intensity (a.u.) |
| GGGGTAGGGTTTGTTCGTTTCGAGGTATGATTCTCAGCGCCGGAGTCACCTAGTGCAG | 10100 fluorescence intensity (a.u.) |
| AGCGACCAAACTGCTGTTCCACGCCGCTAGTTCTTTTCTCCGGAGTCACCTAGTGCAG | 8970 fluorescence intensity (a.u.) |
| TCCTATCCCTACGAGCACTTCCGAAATATTGGACTGACATCGGAGTCACCTAGTGCAG | 8370 fluorescence intensity (a.u.) |
| CTTACAGGCCAAATCATCACACATGATCTCATCCGTCCATCGGAGTCACCTAGTGCAG | 8570 fluorescence intensity (a.u.) |
| GACACTGTTGATCTCCAAATGAATTCTTTTTCTGGCATAACGGAGTCACCTAGTGCAG | 8130 fluorescence intensity (a.u.) |
| CACTTCAAGATTTTTTCCCTCACTCGGCTCGGCTTAGCCCCGGAGTCACCTAGTGCAG | 10200 fluorescence intensity (a.u.) |
| TATGCCCAGTTGATATCCATTATATTATATATGGCCTTATCGGAGTCACCTAGTGCAG | 8210 fluorescence intensity (a.u.) |
| GTTCTGGGCTGTTTAGTTGGAAAAAAATTTTGCTCCTGTACGGAGTCACCTAGTGCAG | 8490 fluorescence intensity (a.u.) |
| TCTTTATATTATTACTGTTGACCTCGATCCTAGGACGACGCGGAGTCACCTAGTGCAG | 8360 fluorescence intensity (a.u.) |
